In US7875634B2, “Cyano anthranilamide insecticides” (E. I. du Pont de Nemours and Company, priority 2003, dated 2011):
Some of these results come from one statement about several compounds together. At least one compound was matched to its structure with a doubt left.

How the values were obtained:
[1] = system: diamondback moth (Plutella xylostella); test: Test A: control of diamondback moth, foliar spray on radish plant; format: in vivo; conditions: sprayed at 50 ppm, 6 days, visual assessment of foliage consumed
[2] = system: fall armyworm (Spodopiera frugiperda); test: Test B: control of fall armyworm, foliar spray on corn plant; format: in vivo; conditions: sprayed at 50 ppm, 6 days, visual rating

Cc1cc(C#N)cc(C(N)=O)c1NC(=O)c1cc(C(F)(F)F)nn1-c1ncccc1Cl [Compound 1]
feeding damage (very good to excellent levels of plant protection) [1]: ≤ 20%
feeding damage (excellent levels of plant protection) [2]: ≤ 20%

CC(C)NC(=O)c1cc(C#N)cc(Cl)c1NC(=O)c1cc(Br)nn1-c1ncccc1F [Compound 17]
feeding damage (very good to excellent levels of plant protection) [1]: ≤ 20%
feeding damage (excellent levels of plant protection) [2]: ≤ 20%

CNC(=O)c1cc(C#N)cc(Cl)c1NC(=O)c1cc(Br)nn1-c1ncccc1F [Compound 18]
feeding damage (very good to excellent levels of plant protection) [1]: ≤ 20%
feeding damage (excellent levels of plant protection) [2]: ≤ 20%

N#Cc1cc(Cl)c(NC(=O)c2cc(Br)nn2-c2ncccc2F)c(C(N)=O)c1 [Compound 19]
feeding damage (very good to excellent levels of plant protection) [1]: ≤ 20%

CNC(=O)c1cc(C#N)cc(C)c1NC(=O)c1cc(C(F)(F)F)nn1-c1ncccc1F [Compound 46]
feeding damage (very good to excellent levels of plant protection) [1]: ≤ 20%
feeding damage (excellent levels of plant protection) [2]: ≤ 20%

Cc1cc(C#N)cc(C(N)=O)c1NC(=O)c1cc(C(F)(F)F)nn1-c1ncccc1F [Compound 47]
feeding damage (very good to excellent levels of plant protection) [1]: ≤ 20%
feeding damage (excellent levels of plant protection) [2]: ≤ 20%

CCNC(=O)c1cc(C#N)cc(C)c1NC(=O)c1cc(C(F)(F)F)nn1-c1ncccc1F [Compound 48]
feeding damage (very good to excellent levels of plant protection) [1]: ≤ 20%
feeding damage (excellent levels of plant protection) [2]: ≤ 20%

CNC(=O)c1cc(C#N)cc(C)c1NC(=O)c1cc(Br)nn1-c1ncccc1F [Compound 49]
feeding damage (very good to excellent levels of plant protection) [1]: ≤ 20%
feeding damage (excellent levels of plant protection) [2]: ≤ 20%

Cc1cc(C#N)cc(C(N)=O)c1NC(=O)c1cc(Br)nn1-c1ncccc1F [Compound 50]
feeding damage (very good to excellent levels of plant protection) [1]: ≤ 20%
feeding damage (excellent levels of plant protection) [2]: ≤ 20%

CCNC(=O)c1cc(C#N)cc(C)c1NC(=O)c1cc(Br)nn1-c1ncccc1F [Compound 51]
feeding damage (very good to excellent levels of plant protection) [1]: ≤ 20%
feeding damage (excellent levels of plant protection) [2]: ≤ 20%

Cc1cc(C#N)cc(C(=O)NC(C)C)c1NC(=O)c1cc(C(F)(F)F)nn1-c1ncccc1F [Compound 52]
feeding damage (very good to excellent levels of plant protection) [1]: ≤ 20%
feeding damage (excellent levels of plant protection) [2]: ≤ 20%

Cc1cc(C#N)cc(C(=O)NC(C)C)c1NC(=O)c1cc(Br)nn1-c1ncccc1F [Compound 53]
feeding damage (very good to excellent levels of plant protection) [1]: ≤ 20%
feeding damage (excellent levels of plant protection) [2]: ≤ 20%

CSCC(C)NC(=O)c1cc(C#N)cc(C)c1NC(=O)c1cc(C(F)(F)F)nn1-c1ncccc1F (stereo not shown) [Compound 54]
feeding damage (very good to excellent levels of plant protection) [1]: ≤ 20%
feeding damage (excellent levels of plant protection) [2]: ≤ 20%

CNC(=O)c1cc(C#N)cc(F)c1NC(=O)c1cc(Br)nn1-c1ncccc1Cl [Compound 55]
feeding damage (excellent levels of plant protection) [2]: ≤ 20%

CNC(=O)c1cc(C#N)cc(C)c1NC(=O)c1cc(Cl)nn1-c1ncccc1F [Compound 88]
feeding damage (very good to excellent levels of plant protection) [1]: ≤ 20%
feeding damage (excellent levels of plant protection) [2]: ≤ 20%

Cc1cc(C#N)cc(C(N)=O)c1NC(=O)c1cc(Cl)nn1-c1ncccc1F [Compound 89]
feeding damage (very good to excellent levels of plant protection) [1]: ≤ 20%

Cc1cc(C#N)cc(C(N)=O)c1NC(=O)c1cc(Cl)nn1-c1ncccc1Br [Compound 90]
feeding damage (very good to excellent levels of plant protection) [1]: ≤ 20%

CNC(=O)c1cc(C#N)cc(C)c1NC(=O)c1cc(Cl)nn1-c1ncccc1Br [Compound 91]
feeding damage (very good to excellent levels of plant protection) [1]: ≤ 20%
feeding damage (excellent levels of plant protection) [2]: ≤ 20%

Cc1cc(C#N)cc(C(=O)NC(C)C)c1NC(=O)c1cc(Cl)nn1-c1ncccc1Br [Compound 92]
feeding damage (very good to excellent levels of plant protection) [1]: ≤ 20%
feeding damage (excellent levels of plant protection) [2]: ≤ 20%

Cc1cc(C#N)cc(C(N)=O)c1NC(=O)c1cc(Br)nn1-c1ncccc1Br [Compound 94]
feeding damage (very good to excellent levels of plant protection) [1]: ≤ 20%
feeding damage (excellent levels of plant protection) [2]: ≤ 20%

CNC(=O)c1cc(C#N)cc(C)c1NC(=O)c1cc(Br)nn1-c1ncccc1Br [Compound 95]
feeding damage (very good to excellent levels of plant protection) [1]: ≤ 20%
feeding damage (excellent levels of plant protection) [2]: ≤ 20%

Cc1cc(C#N)cc(C(=O)NC(C)C)c1NC(=O)c1cc(Br)nn1-c1ncccc1Br [Compound 96]
feeding damage (very good to excellent levels of plant protection) [1]: ≤ 20%
feeding damage (excellent levels of plant protection) [2]: ≤ 20%

Cc1cc(C#N)cc(C(=O)N(C)C)c1NC(=O)c1cc(Br)nn1-c1ncccc1Br [Compound 97]
feeding damage (very good to excellent levels of plant protection) [1]: ≤ 20%

Cc1cc(C#N)cc(C(N)=O)c1NC(=O)c1cc(Cl)nn1-c1ncc(F)cc1F [Compound 106]
feeding damage (very good to excellent levels of plant protection) [1]: ≤ 20%
feeding damage (excellent levels of plant protection) [2]: ≤ 20%

Cc1cc(C#N)cc(C(N)=O)c1NC(=O)c1cc(Br)nn1-c1ncc(F)cc1F [Compound 108]
feeding damage (very good to excellent levels of plant protection) [1]: ≤ 20%

CNC(=O)c1cc(C#N)cc(C)c1NC(=O)c1cc(Br)nn1-c1ncc(F)cc1F [Compound 109]
feeding damage (very good to excellent levels of plant protection) [1]: ≤ 20%
feeding damage (excellent levels of plant protection) [2]: ≤ 20%

CCNC(=O)c1cc(C#N)cc(C)c1NC(=O)c1cc(Br)nn1-c1ncc(F)cc1F [Compound 110]
feeding damage (very good to excellent levels of plant protection) [1]: ≤ 20%
feeding damage (excellent levels of plant protection) [2]: ≤ 20%

Cc1cc(C#N)cc(C(=O)NC(C)C)c1NC(=O)c1cc(Br)nn1-c1ncc(F)cc1F [Compound 111]
feeding damage (very good to excellent levels of plant protection) [1]: ≤ 20%
feeding damage (excellent levels of plant protection) [2]: ≤ 20%

CCNC(=O)c1cc(C#N)cc(C)c1NC(=O)c1cc(Cl)nn1-c1ncc(F)cc1F [Compound 112]
feeding damage (very good to excellent levels of plant protection) [1]: ≤ 20%
feeding damage (excellent levels of plant protection) [2]: ≤ 20%
